In article doi:10.1101/2021.08.05.455199:
No constants are given. Whether binding was seen depends on the method and setting. Binding seen in cells or lysates may run through a third protein.

The chains behind the UniProt entries cited, without tags or fusion partners. Where a name states a change or a piece, a line headed by the entry shows the natural chain unless it says otherwise.
UniProt Q9SQI2: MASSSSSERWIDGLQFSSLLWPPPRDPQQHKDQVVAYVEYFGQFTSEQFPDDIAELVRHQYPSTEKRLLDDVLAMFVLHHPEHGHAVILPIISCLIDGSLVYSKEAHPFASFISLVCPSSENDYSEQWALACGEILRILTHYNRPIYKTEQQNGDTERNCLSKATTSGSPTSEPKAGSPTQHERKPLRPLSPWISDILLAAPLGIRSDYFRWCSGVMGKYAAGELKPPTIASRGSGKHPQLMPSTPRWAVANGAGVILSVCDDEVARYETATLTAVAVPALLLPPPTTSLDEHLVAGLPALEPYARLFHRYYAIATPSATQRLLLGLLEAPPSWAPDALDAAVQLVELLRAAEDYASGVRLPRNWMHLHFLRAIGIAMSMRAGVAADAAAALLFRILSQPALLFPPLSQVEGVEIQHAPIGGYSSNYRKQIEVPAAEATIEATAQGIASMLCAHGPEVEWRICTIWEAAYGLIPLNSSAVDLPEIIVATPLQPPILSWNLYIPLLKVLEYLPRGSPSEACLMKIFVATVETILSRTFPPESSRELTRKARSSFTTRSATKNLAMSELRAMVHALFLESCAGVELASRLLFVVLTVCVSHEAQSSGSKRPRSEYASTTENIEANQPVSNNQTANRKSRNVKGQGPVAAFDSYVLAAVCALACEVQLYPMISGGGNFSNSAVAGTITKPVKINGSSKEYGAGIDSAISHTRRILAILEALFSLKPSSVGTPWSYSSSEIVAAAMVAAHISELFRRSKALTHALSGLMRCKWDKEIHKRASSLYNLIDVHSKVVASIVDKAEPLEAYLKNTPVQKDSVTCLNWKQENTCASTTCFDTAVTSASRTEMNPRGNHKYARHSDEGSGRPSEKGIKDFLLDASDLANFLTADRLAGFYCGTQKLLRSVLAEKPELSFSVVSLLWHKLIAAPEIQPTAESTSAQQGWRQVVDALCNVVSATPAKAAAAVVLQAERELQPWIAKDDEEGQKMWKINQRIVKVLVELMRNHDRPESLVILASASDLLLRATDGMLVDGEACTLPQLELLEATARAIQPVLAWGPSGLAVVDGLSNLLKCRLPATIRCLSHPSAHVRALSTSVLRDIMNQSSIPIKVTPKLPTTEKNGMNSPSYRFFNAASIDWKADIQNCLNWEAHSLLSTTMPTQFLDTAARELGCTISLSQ
UniProt O81223: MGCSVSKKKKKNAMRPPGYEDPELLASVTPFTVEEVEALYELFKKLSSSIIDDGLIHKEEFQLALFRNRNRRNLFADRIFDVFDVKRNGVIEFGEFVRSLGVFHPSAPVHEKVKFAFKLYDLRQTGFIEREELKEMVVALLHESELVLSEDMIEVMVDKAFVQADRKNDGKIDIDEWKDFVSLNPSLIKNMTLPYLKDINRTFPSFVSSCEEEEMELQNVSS

Target: GIGANTEA tagged with HA (GI-HA) (Arabidopsis thaliana) (UniProt Q9SQI2)
Assay: co-IP

binding: no binding
Substance: mutant protein SOS3-1 tagged with MYC (MYC-SOS3-1) (from UniProt O81223)
